For experiment [1], the target named is oxytocin receptor (rat (endogenous in striatal gliosomes and brain slices)) (UniProt P70536). Description: proximity ligation; in situ PLA (Duolink) on 10–15 µm rat hemibrain slices, mouse anti-A2A and rabbit anti-OTR primary antibodies; confocal microscopy with GFAP and ezrin staining; ventral striatum.
Experiment [2] shares this target. The experiment is described as follows: co-IP; Triton X-100-soluble membrane proteins (300 µg) of rat striatal gliosomes, precleared, 1 µg anti-A2A or anti-OTR antibody overnight at 4 °C, protein G-sepharose; 50 mM sodium borate, 0.1 mM EDTA, pH 7.5, 0.2% Triton-X; immunoblot of IP and output.
Experiment [3] has as its target adenosine A2A receptor (rat (endogenous in striatal gliosomes and brain slices)) (UniProt P30543). The description is as above.

The chains behind the UniProt entries cited, without tags or fusion partners. Where a name states a change or a piece, a line headed by the entry shows the natural chain unless it says otherwise.
UniProt P70536: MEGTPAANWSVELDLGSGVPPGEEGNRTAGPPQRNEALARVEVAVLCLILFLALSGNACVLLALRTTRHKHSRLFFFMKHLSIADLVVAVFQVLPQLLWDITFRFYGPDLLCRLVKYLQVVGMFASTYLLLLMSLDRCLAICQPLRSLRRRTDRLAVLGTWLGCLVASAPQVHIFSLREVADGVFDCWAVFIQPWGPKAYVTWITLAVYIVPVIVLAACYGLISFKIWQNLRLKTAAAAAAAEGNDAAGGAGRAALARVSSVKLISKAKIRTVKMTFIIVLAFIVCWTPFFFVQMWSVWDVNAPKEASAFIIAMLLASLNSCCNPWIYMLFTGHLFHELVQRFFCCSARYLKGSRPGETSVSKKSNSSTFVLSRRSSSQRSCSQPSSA
UniProt P30543: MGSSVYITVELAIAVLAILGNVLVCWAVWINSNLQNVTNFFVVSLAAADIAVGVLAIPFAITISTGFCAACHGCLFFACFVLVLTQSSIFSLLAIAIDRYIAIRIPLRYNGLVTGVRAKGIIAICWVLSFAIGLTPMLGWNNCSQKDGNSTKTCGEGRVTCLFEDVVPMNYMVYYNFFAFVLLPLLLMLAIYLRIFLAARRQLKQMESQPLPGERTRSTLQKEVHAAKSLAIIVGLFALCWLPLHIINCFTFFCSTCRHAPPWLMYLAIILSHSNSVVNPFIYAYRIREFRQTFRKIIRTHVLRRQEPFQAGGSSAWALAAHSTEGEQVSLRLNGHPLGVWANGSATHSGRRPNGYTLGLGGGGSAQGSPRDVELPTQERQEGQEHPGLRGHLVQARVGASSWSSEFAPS

For three molecules, binding results are on record in publication PMC8879615.

Results are given in words; binding and its absence hold for the method and conditions named. In cells and extracts the contact can be indirect. Some entries that bind do so weakly or less than the wild type.

On to “adenosine A2A receptor (from UniProt P30543 1-410)”, for which the binding result in experiment [1] and in experiment [2] was “binds” in each case.

On to “oxytocin receptor (from UniProt P70536 1-388)”, for which, in experiment [3], the binding result is “binds”.

B1: flotillin-1 (protein, UniProt Q9Z1E1 1-428)
chain: MFFTCGPNEAMVVSGFCRSPPVMVAGGRVFVLPCIQQIQRISLNTLTLNVKSEKVYTRHGVPISVTGIAQVKIQGQNKEMLAAACQMFLGKTEAEIAHIALETLEGHQRAIMAHMTVEEIYKDRQKFSEQVFKVASSDLVNMGISVVSYTLKDIHDDQDYLHSLGKARTAQVQKDARIGEAEAKRDAGIREAKAKQEKVSAQCLSEIEMAKAQRDYELKKATYDIEVNTRRAQADLAYQLQVAKTKQQIEEQRVQVQVVERAQQVAVQEQEIARREKELEARVRKPAEAERYRLERLAEAEKAQLIMQAEAEAESVRMRGEAEAFAVGARARAEAEQMAKKAEAFQMYQEAAQLDMLLEKLPQVAEEISGPLTSANKITLVSSGSGTMGAAKVTGEVLDILSRLPESVERLTGVSISQVNHNKPLRTA
As to B1, the binding result in experiment [3] and in experiment [2] was “binds” each time.
